Screen size: about 360,000 compounds; about 7,500 (2.1%) were called active. The inconclusive results got no clear call from the source; some entries with a clear call stand among them for comparison. Calls follow the shape of the dose curve; as a rule, active = well fitted inhibition curve with a large enough effect; inconclusive = small, poorly fitted or top-dose-only effect, or effect the other way; inactive = flat fitted curve, though single readings scatter. Where the call is inconclusive, the potency comes from a doubtful curve fit.
Test: Nrf2 qHTS screen for inhibitors; also: nearly all actives have a fitted effect of over 60% in size
Settings: A549 ARE-Fluc reporter, luciferase luminescence, 18-24 h; series mostly up to 46 µM
How it was run: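 Quantitative HTS in A549 cells stably bearing an antioxidant response element-firefly luciferase construct. Inhibition of Nrf2-driven transcription was scored by luminescence after 18-24 h of compound exposure at 37 °C.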
Potency is read from the fitted curve at half-maximal effect.

Q: For `COC(=O)c1sc(NC(=O)c2cc(-c3ccccc3)nc3ccccc23)c(C#N)c1C`, which Potency is on record?
A: active: 9.2 µM

Q: Which Potency does the source give for `Cc1[nH]c2ccc(C(=O)N3CCCCC3)cc2c1C` here?
A: inconclusive: 9.2 µM [activator, partial curve]

Q: With `Cc1c(C(=O)NCCSCc2c(Cl)cccc2Cl)cccc1[N+](=O)[O-]` as the compound, how does the Potency read?
A: active: 9.2 µM

Q: With `COc1ccc(F)c(-c2nc(CN3CCC(c4ccccc4)CC3)c(C)o2)c1` as the compound, how does the Potency read?
A: inconclusive: 18.4 µM [falling, single point]

Q: With `CSc1ccccc1C(=O)NCCSc1ccccc1` as the compound, how does the Potency read?
A: inactive

Q: Which Potency does the source give for `NC(=N\N=CCc1ccccc1)/C(N)=N/N=CCc1ccccc1` here?
A: inconclusive: 29.1 µM [activator, single point]

Q: For `COc1ccc(-c2nc3ncccc3o2)cc1NC(=O)c1ccco1`, which Potency is on record?
A: inconclusive: 11.6 µM [activator, partial curve]

Q: With `CC(=O)Oc1ccc(C(=O)Nc2ccc3c(c2)C(=O)N(CCC(=O)O)C3=O)cc1` as the compound, how does the Potency read?
A: inactive

Q: Which Potency does the source give for `Cc1ccc(C(=O)OC2=CC(=O)CC(C)(C)C2)cc1` here?
A: inconclusive: 7.31 µM [falling, partial curve, poor fit]

Q: Which Potency does the source give for `Nc1ccccc1C=C1Cc2ccccc2C1=O` here?
A: inconclusive: 4.11 µM [activator, partial curve]

Q: For `COC(=O)c1ccc(N2CCOCC2)c(NC(=O)Nc2cccc(OC)c2)c1`, which Potency is on record?
A: inactive

Q: For `CN1CCN(S(=O)(=O)c2ccc(N3CCc4ccccc4C3)nc2)CC1`, which Potency is on record?
A: inactive

Q: Which Potency does the source give for `Cc1cccc(C)c1NC(=O)C1CCCN1C(=O)OC(C)(C)C` (configuration not stated) here?
A: inconclusive: 23.1 µM [activator, partial curve, poor fit]

Q: Which Potency does the source give for `O=C(NCc1ccccc1)C1CCN(S(=O)(=O)c2cc([N+](=O)[O-])ccc2Cl)CC1` here?
A: inconclusive: 18.4 µM [activator, partial curve, poor fit]

Q: Which Potency does the source give for `Cc1ccc2cc3c(N)c(C(=O)Nc4c(C)[nH]c(=O)[nH]c4=O)sc3nc2c1` here?
A: inactive

Q: With `CC(C)C[C@H](NC(=O)c1[nH]cnc1C(=O)N[C@@H](C)c1ccccc1)C(=O)OCc1ccccc1` as the compound, how does the Potency read?
A: inconclusive: 29.1 µM [falling, single point]

Q: With `CCCCSc1nsc(NC(C)=O)n1` as the compound, how does the Potency read?
A: inconclusive: 2.59 µM [activator, full curve]

Q: For `CCc1nnc(NC(=O)C2=CCN(S(=O)(=O)c3ccc(F)cc3)CC2)s1`, which Potency is on record?
A: inconclusive: 20.6 µM [falling, single point]

Q: Which Potency does the source give for `CC(=O)c1cc(C)ccc1OC(=O)CN1C(=O)c2ccccc2C1=O` here?
A: inconclusive: 9.2 µM [falling, partial curve, poor fit]

Q: With `COc1ccc2c(CNCCc3ccco3)c(C(=O)O)n(Cc3ccccc3)c2c1` as the compound, how does the Potency read?
A: inconclusive: 16.4 µM [activator, partial curve, poor fit]

Q: For `Cc1cc(NC(=O)CC(C)C)c(=O)n(Cc2cccc(F)c2)c1`, which Potency is on record?
A: inconclusive: 2.91 µM [falling, partial curve, poor fit]

Q: Which Potency does the source give for `Cc1nc(N)nc(N)c1CCCc1ccc(Cl)c(Cl)c1` here?
A: inconclusive: 29.1 µM [falling, single point]

Q: For `COc1cccc(NC(=O)Nc2cccc(-c3cn4cccnc4n3)c2)c1`, which Potency is on record?
A: inconclusive: 8.2 µM [falling, partial curve, poor fit]

Q: With `CCCCSc1nc2ccccc2[nH]1` as the compound, how does the Potency read?
A: inconclusive: 7.31 µM [activator, partial curve]

Q: Which Potency does the source give for `Cc1[nH]c2c(Cl)cccc2c1CCNC(=O)C1CCCCC1C(=O)OCC(F)(F)F` (configuration not stated) here?
A: inconclusive: 29.1 µM [falling, single point]

Q: Which Potency does the source give for `O=C(NCC1CCCO1)C(=O)NCC(c1ccco1)N1CCN(c2ccc(F)cc2)CC1` (configuration not stated) here?
A: inactive

Q: For `COCCOC(=O)C1=C(C)NC(=O)NC1c1ccc(Cl)cc1` (configuration not stated), which Potency is on record?
A: inactive

Q: With `Cc1ccnc(NC(=O)c2cccc(NC(=O)c3ccccc3C)c2)c1` as the compound, how does the Potency read?
A: inconclusive: 18.4 µM [falling, partial curve]

Q: With `CCCOC1(C(F)(F)F)NC(=O)N(c2ccc(Cl)cc2)C1=O` (configuration not stated) as the compound, how does the Potency read?
A: inconclusive: 23.1 µM [falling, single point]

Q: Which Potency does the source give for `COc1ccccc1C(=O)NC(=O)COC(=O)CCOc1ccc(C)cc1` here?
A: inconclusive: 8.2 µM [activator, partial curve]

Q: With `N=c1c2ccccc2nnn1-c1ccc(C(F)(F)F)cc1` as the compound, how does the Potency read?
A: inactive

Q: For `COc1cccc(/C=C2\N=C(c3c(-c4ccccc4)noc3C)OC2=O)c1`, which Potency is on record?
A: inconclusive: 29.1 µM [activator, single point]

Q: For `Cc1ccc(C)c(NC(=S)NCCc2ccc(F)cc2)c1`, which Potency is on record?
A: inconclusive: 23.1 µM [falling, single point]

Q: Which Potency does the source give for `O=C(C1CCN(S(=O)(=O)c2cccnc2)CC1)N1CCN(c2cccc(Cl)c2)CC1` here?
A: inconclusive: 18.4 µM [falling, single point]

Q: For `COc1ccc2cc3cc(C(=O)Nc4ccc5c(c4)OCO5)oc3nc2c1`, which Potency is on record?
A: inconclusive: 0.631 µM [falling, full curve]

Q: With `O=C(CN1C2=NCCCN2c2ccccc21)c1cccc(Br)c1` as the compound, how does the Potency read?
A: inactive

Q: With `Cc1cccc(NC(=O)c2c(C)oc3ncn(CC(C)C)c(=O)c23)n1` as the compound, how does the Potency read?
A: inconclusive: 29.1 µM [activator, partial curve, poor fit]

Q: Which Potency does the source give for `CCN(CC)S(=O)(=O)c1ccc(NC(=O)CSc2nnc(-c3cccc(OC)c3)n2C)cc1` here?
A: inconclusive: 23.1 µM [falling, single point]

Q: For `Cc1cccc(NC(=S)N/N=C/c2cccc([N+](=O)[O-])c2)c1`, which Potency is on record?
A: inactive

Q: For `CC(C)(C)OC(=O)NCCCCCc1cn(CC(=O)NCCCCCCCCCCC(=O)N2CCN(C(=O)OC(C)(C)C)CC2)nn1`, which Potency is on record?
A: inconclusive: 3.26 µM [falling, partial curve, poor fit]

Q: For `CC(=O)N1CCc2cc(S(=O)(=O)CCC(=O)N3CCN(c4cccc(C)c4C)CC3)ccc21`, which Potency is on record?
A: inconclusive: 4.11 µM [falling, partial curve, poor fit]

Q: Which Potency does the source give for `CS(=O)(=O)N(CC(=O)N1CCCC1)Cc1ccccc1` here?
A: inactive

Q: With `CC1CCN(C(=O)CSc2nc3c(c(=O)n2C)SC(C)C3)CC1` (configuration not stated) as the compound, how does the Potency read?
A: inconclusive: 0.461 µM [falling, full curve, poor fit]

Q: With `COc1ccc(CC(=O)Nc2cccc(-c3cn4ccccc4n3)c2)cc1` as the compound, how does the Potency read?
A: inactive

Q: For `CC(C)c1ccc(NC2CCCN(C(=O)CCN3CCCC3=O)C2)cc1` (configuration not stated), which Potency is on record?
A: inactive

Q: For `COc1ccc(NC(=O)CN2CCN(c3c(C)cc(C)cc3C)CC2)cc1`, which Potency is on record?
A: inconclusive: 29.1 µM [falling, single point]

Q: Which Potency does the source give for `Cc1sc2ncnc(N(C)Cc3ccco3)c2c1C` here?
A: inconclusive: 20.6 µM [falling, single point]

Q: For `COc1cc(OC)c(OC)cc1/C=C1\CCC/C(=C\c2cc(OC)c(OC)cc2OC)C1=O`, which Potency is on record?
A: inconclusive: 29.1 µM [falling, single point]

Q: For `COc1cc(C2Oc3ccccc3C=C2[N+](=O)[O-])cc(OC)c1OC` (configuration not stated), which Potency is on record?
A: inconclusive: 29.1 µM [falling, single point]

Q: Which Potency does the source give for `Cc1ccc(-c2c(CN3CCN(c4cccc(C(F)(F)F)c4)CC3)csc2C)cc1` here?
A: inactive

Q: With `O=C(NCCCn1ccnc1)C(=O)NCC(c1cccnc1)N1CCN(c2ccc(F)cc2)CC1` (configuration not stated) as the compound, how does the Potency read?
A: inconclusive: 32.6 µM [falling, single point]

Q: Which Potency does the source give for `CC(C)(C)C(=O)Oc1ccc2cc(-c3ccc4ccccc4n3)c(=O)oc2c1` here?
A: inactive

Q: With `Cc1cc(Cl)ccc1OCc1n[nH]c(=S)n1C1CCCCC1` as the compound, how does the Potency read?
A: inconclusive: 29.1 µM [falling, single point]

Q: Which Potency does the source give for `Cc1cc(C)c(S(=O)(=O)Nc2ccc3c(c2)CCC3)c(C)c1` here?
A: inconclusive: 29.1 µM [falling, single point]

Q: Which Potency does the source give for `C=C1CC2(CC(c3ccccc3)OC(c3ccccc3)C2)OC1=O` (configuration not stated) here?
A: inconclusive: 16.4 µM [falling, single point]

Q: With `COc1ccc(C(=O)/C=C/c2ccc(OC3CSC3)cc2)cc1OC` as the compound, how does the Potency read?
A: inconclusive: 18.4 µM [falling, partial curve]

Q: Which Potency does the source give for `C=CCn1c(N2CCN(c3ccc(OC)cc3)CC2)nc2c1c(=O)[nH]c(=O)n2C` here?
A: inconclusive: 18.4 µM [falling, partial curve]

Q: Which Potency does the source give for `CCN1C(=O)/C(=C/c2ccc(OC)c(OC)c2)N=C1SCC(=O)NCc1ccco1` here?
A: inactive

Q: For `Cc1cc2nc(-c3ccc4c(c3)CCC4)ccn2n1`, which Potency is on record?
A: inconclusive: 23.1 µM [activator, partial curve]

Q: Which Potency does the source give for `c1ccc(COc2ccc(OCCCN3CCCCC3)cc2)cc1` here?
A: inconclusive: 29.1 µM [activator, single point]

Q: With `CC1(NC(=O)CC(c2ccccc2)(c2ccccc2)c2ccccc2)CCN(Cc2ccc(-c3ccccc3)cc2)C1=O` (configuration not stated) as the compound, how does the Potency read?
A: inconclusive: 29.1 µM [falling, single point]

Q: For `CN1C(C(=O)c2ccccc2)=C(OC(=O)c2ccc(Br)cc2)c2ccccc2S1(=O)=O`, which Potency is on record?
A: inconclusive: 29.1 µM [falling, single point]

Q: With `Nc1ccc(-c2cc(N)n(-c3ccccc3)n2)cc1` as the compound, how does the Potency read?
A: inconclusive: 29.1 µM [activator, single point]

Q: For `COc1ccc(NC(=O)c2cc3c(=O)n(Cc4ccco4)ccc3nc2C)cc1`, which Potency is on record?
A: inactive

Q: For `O=S(=O)(c1ccc(F)cc1)N1CCN(C(=S)NCc2ccco2)CC1`, which Potency is on record?
A: inconclusive: 23.1 µM [falling, partial curve, poor fit]

Q: Which Potency does the source give for `CCOC(=O)c1c(C)[nH]c(C)c1S(=O)(=O)NCC(=O)Nc1cc(C)ccc1OC` here?
A: inconclusive: 29.1 µM [activator, single point]

Q: With `O=C(COC(=O)C1CCCCC1)NCCc1ccccc1` as the compound, how does the Potency read?
A: inconclusive: 10.3 µM [activator, partial curve, poor fit]

Source: PubChem BioAssay AID504444 (National Center for Advancing Translational Sciences (NCATS), 2011)
